Laboratory results: PubChem BioAssay AID504793 (Drosophila RNAi Screening Center, 2011)
The deposit covers about 23,000 reagents; shown is a random part of those with a known target gene and a result. Over the whole deposit, 62 (0.27%) are marked active. 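Calls come from follow-up tests whose scores are not deposited, so confirmed genes may have low counts here; counts are not normalised per plate.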 The raw values are shown without normalisation.

Aim: 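Genes required for cells to halt at G2/M after double-strand DNA breaks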 (primary screen)
Cells: Drosophila S2R+ cells
Reagent: long dsRNA against Drosophila genes, about 0.25 µg dsRNA per well
Duration: 4 days of dsRNA, then 4 hours of drug before read-out
Treatment: doxorubicin 0.5 µM for 4 hours to cause double-strand breaks, in cells also given a low, harmless dose of dsRNA against nbs to sensitise the assay
Read-out: 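Mitotic index as the number of phospho-histone H3-positive cells in each well following doxorubicin, given as raw counts without normalisation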
Reading the numbers: mitotic cells: higher = more cells in mitosis, weaker G2 arrest
Rule for the call: 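Genes are called active only when high mitotic counts were reproduced with independent dsRNAs and mitosis was checked for delay without damage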
Calls: active = confirmed in follow-up tests; inactive = not confirmed

Silencing of Pop1 [DRSC17739] resulted in: mitotic cells, replicate 1 = 7; inactive.
mRpL48 [DRSC00506] showed mitotic cells, replicate 1 = 8; inactive.
With knock-down of Adk2 [DRSC09827], the record shows mitotic cells, replicate 1 = 6; inactive.
Depletion of CG17110 [DRSC15173] gave: mitotic cells, replicate 1 = 10; inactive.
Depletion of ItgaPS4 [DRSC06630] gave: mitotic cells, replicate 1 = 4; inactive.
sti [DRSC09739] showed mitotic cells, replicate 1 = 3; inactive.
Silencing of sti [DRSC09740] gave: mitotic cells, replicate 1 = 5; inactive.
Cp18 [DRSC11120] showed mitotic cells, replicate 1 = 9; inactive.
With knock-down of CG3511 [DRSC04382], the screen gave mitotic cells, replicate 1 = 5; inactive.
CG3511 [DRSC28281] gave mitotic cells, replicate 1 = 5; inactive.
For awd [DRSC16906], the entry reads mitotic cells, replicate 1 = 16; inactive.
After knock-down of Hou [DRSC20001] the results were mitotic cells, replicate 1 = 6; inactive.
Hou [DRSC22347] scored mitotic cells, replicate 1 = 9; inactive.
Silencing of Hou [DRSC26803] came out at: mitotic cells, replicate 1 = 7; inactive.
Against CG10553 [DRSC14254], the values are mitotic cells, replicate 1 = 11; inactive.
Knock-down of CG9175 [DRSC03153] gave: mitotic cells, replicate 1 = 5; inactive.
CG1146 [DRSC08189] scored mitotic cells, replicate 1 = 1; inactive.
For CG1146 [DRSC25486], the values are mitotic cells, replicate 1 = 6; inactive.
Cpr49Af [DRSC07202] showed mitotic cells, replicate 1 = 3; inactive.
After knock-down of Cpr49Af [DRSC24397], the record shows mitotic cells, replicate 1 = 2; inactive.
For CG4377 [DRSC04467], the values are mitotic cells, replicate 1 = 8; inactive.
For CG4377 [DRSC28406], the values are mitotic cells, replicate 1 = 6; inactive.
After knock-down of dia [DRSC03519], the screen gave mitotic cells, replicate 1 = 11; inactive.
Knock-down of dia [DRSC24127] gave: mitotic cells, replicate 1 = 4; inactive.
Knock-down of CG12477 [DRSC09886] gave: mitotic cells, replicate 1 = 8; inactive.
After knock-down of CG12477 [DRSC24078] the results were mitotic cells, replicate 1 = 5; inactive.
For Smug [DRSC15762], the values are mitotic cells, replicate 1 = 5; inactive.
Against PolD1 [DRSC11138] the deposit lists mitotic cells, replicate 1 = 5; inactive.
PolD1 [DRSC28966] showed mitotic cells, replicate 1 = 3; inactive.
Against lark [DRSC11362], the values are mitotic cells, replicate 1 = 6; inactive.
With knock-down of lark [DRSC25108] the results were mitotic cells, replicate 1 = 6; inactive.
Depletion of TppII [DRSC07565] resulted in: mitotic cells, replicate 1 = 7; inactive.
armi [DRSC08193] gave mitotic cells, replicate 1 = 8; inactive.
Knock-down of CG42741 [DRSC04593] resulted in: mitotic cells, replicate 1 = 7; inactive.
For CG42741 [DRSC22045], the values are mitotic cells, replicate 1 = 9; inactive.
CG42741 [DRSC30003] scored mitotic cells, replicate 1 = 10; inactive.
CG34355 [DRSC13639] gave mitotic cells, replicate 1 = 14; inactive.
For CG34355 [DRSC14520], the entry reads mitotic cells, replicate 1 = 7; inactive.
Depletion of CG34355 [DRSC14668] came out at: mitotic cells, replicate 1 = 12; inactive.
For CG34355 [DRSC21687], the entry reads mitotic cells, replicate 1 = 9; inactive.
For CG14949 [DRSC08408], the entry reads mitotic cells, replicate 1 = 6; inactive.
CG5877 [DRSC19963] showed mitotic cells, replicate 1 = 5; inactive.
Depletion of CG5877 [DRSC28413] resulted in: mitotic cells, replicate 1 = 6; inactive.

Quoted from above, 6 entries:
dia [DRSC03519] — mitotic cells, replicate 1 = 11; outcome = inactive
dia [DRSC24127] — mitotic cells, replicate 1 = 4; outcome = inactive
CG12477 [DRSC09886] — mitotic cells, replicate 1 = 8; outcome = inactive
CG12477 [DRSC24078] — mitotic cells, replicate 1 = 5; outcome = inactive
Smug [DRSC15762] — mitotic cells, replicate 1 = 5; outcome = inactive
PolD1 [DRSC11138] — mitotic cells, replicate 1 = 5; outcome = inactive
